# Test results reported in the supplement of paper PMC8728848.
# The other results are listed elsewhere or left out.
# Assays:
# Assay in all cases: glycan array binding signal (z-score within array); higher = stronger binding
# Details in all cases: glycan notation: IUPAC condensed, linker removed
# [1] = target: Gal(b1-4)GlcNAc(b1-3)Gal(b1-3)GalNAc
# Procedure, shortened: (§1)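 Glycan array binding is given as a within-array Z-score, which can be read as non-binding when negative. The arrays, 3228 of them, came from the Consortium for Functional Glycomics database and were retained only where the protein sequence was available. Z-scores were averaged across arrays of the same protein sequence at different concentrations or buffers and across linkers.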
# [2] = target: Gal(b1-4)GlcNAc(b1-3)Gal(b1-3)GlcNAc
# Procedure, shortened: as §1
# [3] = target: Gal(b1-4)GlcNAc(b1-3)Gal(b1-4)Glc
# Procedure, shortened: as §1
# [4] = target: Gal(b1-4)GlcNAc(b1-3)Gal(b1-4)GlcNAc
# Procedure, shortened: as §1
# [5] = target: Gal(b1-4)GlcNAc(b1-3)Gal(b1-4)GlcNAc(b1-2)Man(a1-3)[Gal(b1-4)GlcNAc(b1-3)Gal(b1-4)GlcNAc(b1-2)Man(a1-6)]Man(b1-4)GlcNAc(b1-4)GlcNAc
# Procedure, shortened: as §1
# [6] = target: Gal(b1-4)GlcNAc(b1-3)Gal(b1-4)GlcNAc(b1-2)Man(a1-3)[Gal(b1-4)GlcNAc(b1-3)Gal(b1-4)GlcNAc(b1-2)Man(a1-6)]Man(b1-4)GlcNAc(b1-4)[Fuc(a1-6)]GlcNAc
# Procedure, shortened: as §1
# [7] = target: Gal(b1-4)GlcNAc(b1-3)Gal(b1-4)GlcNAc(b1-2)[Gal(b1-4)GlcNAc(b1-3)Gal(b1-4)GlcNAc(b1-6)]Man(a1-6)[Gal(b1-4)GlcNAc(b1-3)Gal(b1-4)GlcNAc(b1-2)Man(a1-3)]Man(b1-4)GlcNAc(b1-4)GlcNAc
# Procedure, shortened: as §1
# [8] = target: Gal(b1-4)GlcNAc(b1-3)Gal(b1-4)GlcNAc(b1-2)[Gal(b1-4)GlcNAc(b1-3)Gal(b1-4)GlcNAc(b1-6)]Man(a1-6)[Gal(b1-4)GlcNAc(b1-3)Gal(b1-4)GlcNAc(b1-2)Man(a1-3)]Man(b1-4)GlcNAc(b1-4)[Fuc(a1-6)]GlcNAc
# Procedure, shortened: as §1
# [9] = target: Gal(b1-4)GlcNAc(b1-3)Gal(b1-4)GlcNAc(b1-3)Gal(b1-4)GlcNAc
# Procedure, shortened: as §1
# [10] = target: Gal(b1-4)GlcNAc(b1-3)Gal(b1-4)GlcNAc(b1-3)Gal(b1-4)GlcNAc(b1-2)Man(a1-3)[Gal(b1-4)GlcNAc(b1-3)Gal(b1-4)GlcNAc(b1-3)Gal(b1-4)GlcNAc(b1-2)Man(a1-6)]Man(b1-4)GlcNAc(b1-4)GlcNAc
# Procedure, shortened: as §1
# [11] = target: Gal(b1-4)GlcNAc(b1-3)Gal(b1-4)GlcNAc(b1-3)Gal(b1-4)GlcNAc(b1-2)Man(a1-3)[Gal(b1-4)GlcNAc(b1-3)Gal(b1-4)GlcNAc(b1-3)Gal(b1-4)GlcNAc(b1-2)Man(a1-6)]Man(b1-4)GlcNAc(b1-4)[Fuc(a1-6)]GlcNAc
# Procedure, shortened: as §1
# [12] = target: Gal(b1-4)GlcNAc(b1-3)Gal(b1-4)GlcNAc(b1-3)Gal(b1-4)GlcNAc(b1-2)[Gal(b1-4)GlcNAc(b1-3)Gal(b1-4)GlcNAc(b1-3)Gal(b1-4)GlcNAc(b1-6)]Man(a1-6)[Gal(b1-4)GlcNAc(b1-3)Gal(b1-4)GlcNAc(b1-3)Gal(b1-4)GlcNAc(b1-2)Man(a1-3)]Man(b1-4)GlcNAc(b1-4)[Fuc(a1-6)]GlcNAc
# Procedure, shortened: as §1
# [13] = target: Gal(b1-4)GlcNAc(b1-3)Gal(b1-4)GlcNAc(b1-3)Gal(b1-4)GlcNAc(b1-3)Gal(b1-4)GlcNAc(b1-2)Man(a1-3)[Gal(b1-4)GlcNAc(b1-3)Gal(b1-4)GlcNAc(b1-3)Gal(b1-4)GlcNAc(b1-3)Gal(b1-4)GlcNAc(b1-2)Man(a1-6)]Man(b1-4)GlcNAc(b1-4)GlcNAc
# Procedure, shortened: as §1
# [14] = target: Gal(b1-4)GlcNAc(b1-3)Gal(b1-4)GlcNAc(b1-3)Gal(b1-4)GlcNAc(b1-3)Gal(b1-4)GlcNAc(b1-2)Man(a1-3)[Gal(b1-4)GlcNAc(b1-3)Gal(b1-4)GlcNAc(b1-3)Gal(b1-4)GlcNAc(b1-3)Gal(b1-4)GlcNAc(b1-2)Man(a1-6)]Man(b1-4)GlcNAc(b1-4)[Fuc(a1-6)]GlcNAc
# Procedure, shortened: as §1
# [15] = target: Gal(b1-4)GlcNAc(b1-3)Gal(b1-4)GlcNAc(b1-3)Gal(b1-4)GlcNAc(b1-3)Gal(b1-4)GlcNAc(b1-2)[Gal(b1-4)GlcNAc(b1-3)Gal(b1-4)GlcNAc(b1-3)Gal(b1-4)GlcNAc(b1-3)Gal(b1-4)GlcNAc(b1-6)]Man(a1-6)[Gal(b1-4)GlcNAc(b1-3)Gal(b1-4)GlcNAc(b1-3)Gal(b1-4)GlcNAc(b1-3)Gal(b1-4)GlcNAc(b1-2)Man(a1-3)]Man(b1-4)GlcNAc(b1-4)[Fuc(a1-6)]GlcNAc
# Procedure, shortened: as §1
# [16] = target: Gal(b1-4)GlcNAc(b1-3)Gal(b1-4)GlcNAc(b1-3)Gal(b1-4)GlcNAc(b1-3)Gal(b1-4)GlcNAc(b1-3)Gal(b1-4)GlcNAc(b1-2)Man(a1-3)[Gal(b1-4)GlcNAc(b1-3)Gal(b1-4)GlcNAc(b1-3)Gal(b1-4)GlcNAc(b1-3)Gal(b1-4)GlcNAc(b1-3)Gal(b1-4)GlcNAc(b1-2)Man(a1-6)]Man(b1-4)GlcNAc(b1-4)GlcNAc
# Procedure, shortened: as §1
# [17] = target: Gal(b1-4)GlcNAc(b1-3)Gal(b1-4)GlcNAc(b1-3)Gal(b1-4)GlcNAc(b1-3)Gal(b1-4)GlcNAc(b1-3)Gal(b1-4)GlcNAc(b1-2)Man(a1-3)[Gal(b1-4)GlcNAc(b1-3)Gal(b1-4)GlcNAc(b1-3)Gal(b1-4)GlcNAc(b1-3)Gal(b1-4)GlcNAc(b1-3)Gal(b1-4)GlcNAc(b1-2)Man(a1-6)]Man(b1-4)GlcNAc(b1-4)[Fuc(a1-6)]GlcNAc
# Procedure, shortened: as §1
# [18] = target: Gal(b1-4)GlcNAc(b1-3)Gal(b1-4)GlcNAc(b1-3)Gal(b1-4)GlcNAc(b1-3)Gal(b1-4)GlcNAc(b1-3)Gal(b1-4)GlcNAc(b1-2)[Gal(b1-4)GlcNAc(b1-3)Gal(b1-4)GlcNAc(b1-3)Gal(b1-4)GlcNAc(b1-3)Gal(b1-4)GlcNAc(b1-3)Gal(b1-4)GlcNAc(b1-6)]Man(a1-6)[Gal(b1-4)GlcNAc(b1-3)Gal(b1-4)GlcNAc(b1-3)Gal(b1-4)GlcNAc(b1-3)Gal(b1-4)GlcNAc(b1-3)Gal(b1-4)GlcNAc(b1-2)Man(a1-3)]Man(b1-4)GlcNAc(b1-4)[Fuc(a1-6)]GlcNAc
# Procedure, shortened: as §1
# [19] = target: Gal(b1-4)GlcNAc(b1-3)Gal(b1-4)GlcNAc(b1-3)Gal(b1-4)GlcNAc(b1-3)Gal(b1-4)GlcNAc(b1-3)Gal(b1-4)GlcNAc(b1-3)Gal(b1-4)GlcNAc(b1-2)Man(a1-3)[Gal(b1-4)GlcNAc(b1-3)Gal(b1-4)GlcNAc(b1-3)Gal(b1-4)GlcNAc(b1-3)Gal(b1-4)GlcNAc(b1-3)Gal(b1-4)GlcNAc(b1-3)Gal(b1-4)GlcNAc(b1-2)Man(a1-6)]Man(b1-4)GlcNAc(b1-4)GlcNAc
# Procedure, shortened: as §1
# [20] = target: Gal(b1-4)GlcNAc(b1-3)Gal(b1-4)GlcNAc(b1-3)GalNAc
# Procedure, shortened: as §1
# [21] = target: Gal(b1-4)GlcNAc(b1-3)Gal(b1-4)GlcNAc(b1-3)[Gal(b1-4)GlcNAc(b1-3)Gal(b1-4)GlcNAc(b1-6)]GalNAc
# Procedure, shortened: as §1
# [22] = target: Gal(b1-4)GlcNAc(b1-3)Gal(b1-4)GlcNAc(b1-6)[Gal(b1-3)]GalNAc
# Procedure, shortened: as §1
# [23] = target: Gal(b1-4)GlcNAc(b1-3)Gal(b1-4)[Fuc(a1-3)GlcNAc(b1-6)]Gal(b1-4)Glc
# Procedure, shortened: as §1
binder,measurement,setting,value
"CRT-1 (Homo sapiens), P27797 (protein) MLLSVPLLLGLLGLAVAEPAVYFKEQFLDGDGWTSRWIESKHKSDFGKFVLSSGKFYGDEEKDKGLQTSQDARFYALSASFEPFSNKGQTLVVQFTVKHEQNIDCGGGYVKLFPNSLDQTDMHGDSEYNIMFGPDICGPGTKKVHVIFNYKGKNVLINKDIRCKDDEFTHLYTLIVRPDNTYEVKIDNSQVESGSLEDDWDFLPPKKIKDPDASKPEDWDERAKIDDPTDSKPEDWDKPEHIPDPDAKKPEDWDEEMDGEWEPPVIQNPEYKGEWKPRQIDNPDYKGTWIHPEIDNPEYSPDPSIYAYDNFGVLGLDLWQVKSGTIFDNFLITNDEAYAEEFGNETWGVTKAAEKQMKDKQDEEQRLKEEEEDKKRKEEEEAEDKEDDEDKDEDEEDEEDKEEDEEEDVPGQAKDEL",glycan array binding signal (z-score),[1],0.06
same,glycan array binding signal (z-score),[2],-0.342
same,glycan array binding signal (z-score),[3],-0.209
same,glycan array binding signal (z-score),[4],-0.647
same,glycan array binding signal (z-score),[5],0.311
same,glycan array binding signal (z-score),[6],1.25
same,glycan array binding signal (z-score),[7],0.691
same,glycan array binding signal (z-score),[8],0.692
same,glycan array binding signal (z-score),[9],-0.248
same,glycan array binding signal (z-score),[10],0.99
same,glycan array binding signal (z-score),[11],0.162
same,glycan array binding signal (z-score),[12],1.1
same,glycan array binding signal (z-score),[13],-0.033
same,glycan array binding signal (z-score),[14],1.79
same,glycan array binding signal (z-score),[15],1.03
same,glycan array binding signal (z-score),[16],1.75
same,glycan array binding signal (z-score),[17],1.32
same,glycan array binding signal (z-score),[18],1.36
same,glycan array binding signal (z-score),[19],0.789
same,glycan array binding signal (z-score),[20],0.352
same,glycan array binding signal (z-score),[21],0.711
same,glycan array binding signal (z-score),[22],0.617
same,glycan array binding signal (z-score),[23],-0.331

# Looked up one by one from the entries so far (2):
binder,measurement,setting,value
"CRT-1 (Homo sapiens), P27797 (protein) MLLSVPLLLGLLGLAVAEPAVYFKEQFLDGDGWTSRWIESKHKSDFGKFVLSSGKFYGDEEKDKGLQTSQDARFYALSASFEPFSNKGQTLVVQFTVKHEQNIDCGGGYVKLFPNSLDQTDMHGDSEYNIMFGPDICGPGTKKVHVIFNYKGKNVLINKDIRCKDDEFTHLYTLIVRPDNTYEVKIDNSQVESGSLEDDWDFLPPKKIKDPDASKPEDWDERAKIDDPTDSKPEDWDKPEHIPDPDAKKPEDWDEEMDGEWEPPVIQNPEYKGEWKPRQIDNPDYKGTWIHPEIDNPEYSPDPSIYAYDNFGVLGLDLWQVKSGTIFDNFLITNDEAYAEEFGNETWGVTKAAEKQMKDKQDEEQRLKEEEEDKKRKEEEEAEDKEDDEDKDEDEEDEEDKEEDEEEDVPGQAKDEL",glycan array binding signal (z-score),[5],0.311
same,glycan array binding signal (z-score),[16],1.75
